Like-named read-outs stand apart in the source and are kept apart here. These are yes or no findings as the source states them, for the method shown. In cells and extracts the contact can be indirect. These calls come from enrichment with a bait or labelling near it, and not all partners need be listed. For some of these results: Tags and fused reporters may be left off the sequences shown.
Key:
[1] = target: T1, MYC-UltraID-tagged full-length RNPS1 (UniProt Q15287); assay: proximity labelling; MYC-UltraID-tagged full-length RNPS1 in cells; 50 uM biotin for 10 minutes; lysis in phospho-RIPA buffer with RNase A; streptavidin magnetic beads; label-free MS, against MYC-UltraID-NLS control
T1 sequence: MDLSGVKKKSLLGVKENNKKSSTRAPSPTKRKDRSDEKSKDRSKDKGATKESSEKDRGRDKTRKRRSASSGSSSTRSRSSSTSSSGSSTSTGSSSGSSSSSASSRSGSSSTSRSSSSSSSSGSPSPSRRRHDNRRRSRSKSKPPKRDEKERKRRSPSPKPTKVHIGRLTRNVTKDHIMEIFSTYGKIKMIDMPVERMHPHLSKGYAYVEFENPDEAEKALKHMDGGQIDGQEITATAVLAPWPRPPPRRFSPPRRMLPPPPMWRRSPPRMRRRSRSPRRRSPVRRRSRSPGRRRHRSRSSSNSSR

By UniProt entry, the sequences of proteins in these tests, tags left out.
UniProt P09012: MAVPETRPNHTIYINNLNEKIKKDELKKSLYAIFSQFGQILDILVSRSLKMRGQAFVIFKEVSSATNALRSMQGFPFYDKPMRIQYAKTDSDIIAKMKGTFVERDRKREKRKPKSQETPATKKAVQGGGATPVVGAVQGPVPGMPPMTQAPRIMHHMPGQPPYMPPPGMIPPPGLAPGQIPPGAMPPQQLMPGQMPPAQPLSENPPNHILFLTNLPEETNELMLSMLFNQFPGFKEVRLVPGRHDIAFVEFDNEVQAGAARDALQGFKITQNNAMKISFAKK

[2] = target: T2, FLAG-TurboID-tagged full-length RNPS1 (UniProt Q15287); assay: proximity labelling; FLAG-TurboID-tagged RNPS1 construct in HEK293 cells; 50 uM biotin for 10 minutes; lysis in phospho-RIPA buffer with RNase A; streptavidin magnetic beads; label-free MS, against FLAG-TurboID-NLS control
T2 sequence: T1 sequence

[3] = target: T3, FLAG-emGFP-tagged full-length RNPS1 (UniProt Q15287); assay: affinity purification with mass spectrometry; FLAG-emGFP-tagged RNPS1 construct as bait; lysate in buffer E (20 mM HEPES-KOH pH 7.9, 100 mM KCl, 10% glycerol, 1 mM DTT) with 1 ug/ml RNase A; Anti-FLAG M2 magnetic beads, 2 h at 4 C; mild wash buffer; FLAG peptide elution; label-free MS, against FLAG-emGFP control
T3 sequence: T1 sequence

[4] = target: T2, FLAG-TurboID-tagged full-length RNPS1; assay: proximity labelling; FLAG-TurboID-tagged RNPS1 construct in HEK293 cells; 50 uM biotin for 10 minutes; lysis in phospho-RIPA buffer with RNase A; streptavidin magnetic beads; label-free MS, against FLAG-TurboID-NLS control; remark: listed apart in the source
[5] = target: FLAG-TurboID-tagged C-terminally shortened RNPS1 (Del-C); assay: as above
[6] = target: T4, FLAG-TurboID-tagged RNPS1 RRM (UniProt Q15287); assay: as above
T4 sequence: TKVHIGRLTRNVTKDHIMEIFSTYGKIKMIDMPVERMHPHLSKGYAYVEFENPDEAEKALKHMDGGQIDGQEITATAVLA

[7] = target: FLAG-emGFP-tagged C-terminally shortened RNPS1 (Del-C); assay: affinity purification with mass spectrometry; FLAG-emGFP-tagged RNPS1 construct as bait; lysate in buffer E (20 mM HEPES-KOH pH 7.9, 100 mM KCl, 10% glycerol, 1 mM DTT) with 1 ug/ml RNase A; Anti-FLAG M2 magnetic beads, 2 h at 4 C; mild wash buffer; FLAG peptide elution; label-free MS, against FLAG-emGFP control
[8] = target: T5, FLAG-emGFP-tagged RNPS1 RRM (UniProt Q15287); assay: as above
T5 sequence: T4 sequence

Measured: binding

SNRPA (from UniProt P09012 1-282)
binds: [1] | [2] | [3]

B1: Sin3A associated protein 18 (SAP18) (protein, UniProt O00422 1-153)
chain: MAVESRVTQEEIKKEPEKPIDREKTCPLLLRVFTTNNGRHHRMDEFSRGNVPSSELQIYTWMDATLKELTSLVKEVYPEARKKGTHFNFAIVFTDVKRPGYRVKEIGSTMSGRKGTDDSMTLQSQKFQIGDYLDIAITPPNRAPPPSGRMRPY
binds: [4] | [5] | [6] | [1] | [7] | [3] | [8]

B2: LUC7L2 (protein, UniProt Q9Y383 1-392)
chain: MSAQAQMRAMLDQLMGTSRDGDTTRQRIKFSDDRVCKSHLLNCCPHDVLSGTRMDLGECLKVHDLALRADYEIASKEQDFFFELDAMDHLQSFIADCDRRTEVAKKRLAETQEEISAEVAAKAERVHELNEEIGKLLAKVEQLGAEGNVEESQKVMDEVEKARAKKREAEEVYRNSMPASSFQQQKLRVCEVCSAYLGLHDNDRRLADHFGGKLHLGFIEIREKLEELKRVVAEKQEKRNQERLKRREEREREEREKLRRSRSHSKNPKRSRSREHRRHRSRSMSRERKRRTRSKSREKRHRHRSRSSSRSRSRSHQRSRHSSRDRSRERSKRRSSKERFRDQDLASCDRDRSSRDRSPRDRDRKDKKRSYESANGRSEDRRSSEEREAGEI
binds: [4] | [1] | [7] | [3]

B3: LUC7L3 (protein, UniProt O95232 1-432)
chain: MISAAQLLDELMGRDRNLAPDEKRSNVRWDHESVCKYYLCGFCPAELFTNTRSDLGPCEKIHDENLRKQYEKSSRFMKVGYERDFLRYLQSLLAEVERRIRRGHARLALSQNQQSSGAAGPTGKNEEKIQVLTDKIDVLLQQIEELGSEGKVEEAQGMMKLVEQLKEERELLRSTTSTIESFAAQEKQMEVCEVCGAFLIVGDAQSRVDDHLMGKQHMGYAKIKATVEELKEKLRKRTEEPDRDERLKKEKQEREEREKEREREREERERKRRREEEEREKERARDRERRKRSRSRSRHSSRTSDRRCSRSRDHKRSRSRERRRSRSRDRRRSRSHDRSERKHRSRSRDRRRSKSRDRKSYKHRSKSRDREQDRKSKEKEKRGSDDKKSSVKSGSREKQSEDTNTESKESDTKNEVNGTSEDIKSEGDTQSN
binds: [4] | [1] | [7] | [3]

B4: Acinus (ACIN1) (protein, UniProt Q9UKV3 1-1341)
chain: MWRRKHPRTSGGTRGVLSGNRGVEYGSGRGHLGTFEGRWRKLPKMPEAVGTDPSTSRKMAELEEVTLDGKPLQALRVTDLKAALEQRGLAKSGQKSALVKRLKGALMLENLQKHSTPHAAFQPNSQIGEEMSQNSFIKQYLEKQQELLRQRLEREAREAAELEEASAESEDEMIHPEGVASLLPPDFQSSLERPELELSRHSPRKSSSISEEKGDSDDEKPRKGERRSSRVRQARAAKLSEGSQPAEEEEDQETPSRNLRVRADRNLKTEEEEEEEEEEEEDDEEEEGDDEGQKSREAPILKEFKEEGEEIPRVKPEEMMDERPKTRSQEQEVLERGGRFTRSQEEARKSHLARQQQEKEMKTTSPLEEEEREIKSSQGLKEKSKSPSPPRLTEDRKKASLVALPEQTASEEETPPPLLTKEASSPPPHPQLHSEEEIEPMEGPAPAVLIQLSPPNTDADTRELLVSQHTVQLVGGLSPLSSPSDTKAESPAEKVPEESVLPLVQKSTLADYSAQKDLEPESDRSAQPLPLKIEELALAKGITEECLKQPSLEQKEGRRASHTLLPSHRLKQSADSSSSRSSSSSSSSSRSRSRSPDSSGSRSHSPLRSKQRDVAQARTHANPRGRPKMGSRSTSESRSRSRSRSRSASSNSRKSLSPGVSRDSSTSYTETKDPSSGQEVATPPVPQLQVCEPKERTSTSSSSVQARRLSQPESAEKHVTQRLQPERGSPKKCEAEEAEPPAATQPQTSETQTSHLPESERIHHTVEEKEEVTMDTSENRPENDVPEPPMPIADQVSNDDRPEGSVEDEEKKESSLPKSFKRKISVVSATKGVPAGNSDTEGGQPGRKRRWGASTATTQKKPSISITTESLKSLIPDIKPLAGQEAVVDLHADDSRISEDETERNGDDGTHDKGLKICRTVTQVVPAEGQENGQREEEEEEKEPEAEPPVPPQVSVEVALPPPAEHEVKKVTLGDTLTRRSISQQKSGVSITIDDPVRTAQVPSPPRGKISNIVHISNLVRPFTLGQLKELLGRTGTLVEEAFWIDKIKSHCFVTYSTVEEAVATRTALHGVKWPQSNPKFLCADYAEQDELDYHRGLLVDRPSETKTEEQGIPRPLHPPPPPPVQPPQHPRAEQREQERAVREQWAEREREMERRERTRSEREWDRDKVREGPRSRSRSRDRRRKERAKSKEKKSEKKEKAQEEPPAKLLDDLFRKTKAAPCIYWLPLTDSQIVQKEAERAERAKEREKRRKEQEEEEQKEREKEAERERNRQLEREKRREHSRERDRERERERERDRGDRDRDRERDRERGRERDRRDTKRHSRSRSRSTPVRDRGGRR
binds: [4] | [5] | [6] | [1] | [7] | [3] | [8]

B5: U2AF1 (protein, UniProt Q01081 1-240)
chain: MAEYLASIFGTEKDKVNCSFYFKIGACRHGDRCSRLHNKPTFSQTIALLNIYRNPQNSSQSADGLRCAVSDVEMQEHYDEFFEEVFTEMEEKYGEVEEMNVCDNLGDHLVGNVYVKFRREEDAEKAVIDLNNRWFNGQPIHAELSPVTDFREACCRQYEMGECTRGGFCNFMHLKPISRELRRELYGRRRKKHRSRSRSRERRSRSRDRGRGGGGGGGGGGGGRERDRRRSRDRERSGRF
binds: [3] | [8]

B6: SLU7 (protein, UniProt O95391 1-586)
chain: MSATVVDAVNAAPLSGSKEMSLEEPKKMTREDWRKKKELEEQRKLGNAPAEVDEEGKDINPHIPQYISSVPWYIDPSKRPTLKHQRPQPEKQKQFSSSGEWYKRGVKENSIITKYRKGACENCGAMTHKKKDCFERPRRVGAKFTGTNIAPDEHVQPQLMFDYDGKRDRWNGYNPEEHMKIVEEYAKVDLAKRTLKAQKLQEELASGKLVEQANSPKHQWGEEEPNSQMEKDHNSEDEDEDKYADDIDMPGQNFDSKRRITVRNLRIREDIAKYLRNLDPNSAYYDPKTRAMRENPYANAGKNPDEVSYAGDNFVRYTGDTISMAQTQLFAWEAYDKGSEVHLQADPTKLELLYKSFKVKKEDFKEQQKESILEKYGGQEHLDAPPAELLLAQTEDYVEYSRHGTVIKGQERAVACSKYEEDVKIHNHTHIWGSYWKEGRWGYKCCHSFFKYSYCTGEAGKEIVNSEECIINEITGEESVKKPQTLMELHQEKLKEEKKKKKKKKKKHRKSSSDSDDEEKKHEKLKKALNAEEARLLHVKETMQIDERKRPYNSMYETREPTEEEMEAYRMKRQRPDDPMASFLGQ
binds: [8]

Reference: paper PMC9178013
